US20090209510A1, “Novel Method of Treating Hyperlipidemia” (TAKEDA PHARMACEUTICAL COMPANY LIMITED, priority 2005, published 2009)

Assays:
Hartley guinea pigs = settings: atorvastatin 50 mg/kg alone or with Compound X 30 mg/kg, 7 days
Wistar Fatty rats = experiment: Lowering effect on plasma triglyceride by use in combination of Compound X and atorvastatin (Example 1); assay type: in vivo, rat; settings: 30 mg/kg alone, orally once a day for 8 days, overnight fasting, average ± standard error (N = 6)
Procedure: To Wistar Fatty rats (19 week-old female, N=6), 10-mL/kg dose of the vehicle, Compound X (30 mg/kg) alone, atorvastatin (30 mg/kg) alone or combination of both drugs was administered orally for 8 days, once a day.

increase in the aspartate aminotransferase in plasma (Hartley guinea pigs): Significant increase
Structure (SMILES): CC(C)c1c(C(=O)Nc2ccccc2)c(-c2ccccc2)c(-c2ccc(F)cc2)n1CC[C@@H](O)C[C@@H](O)CC(=O)O [Atorvastatin, atorvastatin]
Plasma triglyceride value (Wistar Fatty rats): 192.1 ± 15.2 mg/dL
